Assay results taken from article PMC3121775.
Results are given in words; binding and its absence hold for the method and conditions named.

Biological target: Hrk-TM, transmembrane domain of human Harakiri (residues 61-91) (human) (UniProt O00198)
Experiment: migration in SDS-PAGE; Hrk-TM at 0.16-0.5 mM in SDS-polyacrylamide gel, migration compared with lysozyme (~14 kDa) and gpW (~7 kDa); both purified

## Hrk-TM, transmembrane domain of human Harakiri (residues 61-91) (from UniProt O00198 61-91) (peptide)
  binding: no binding (tested: 0.5 mM)
